Data as given in PubChem BioAssay AID2685 (National Center for Advancing Translational Sciences (NCATS), 2010).
This is one part of the list. Further columns of the screen follow, without active or inactive calls. Most of these compounds were active or inconclusive in the main read-out, so they are no random draw. Words in brackets tell the shape of the fitted curve; partial curves, single points and poor fits give uncertain potencies.

Experiment: qHTS Assay for Lipid Storage Modulators in Drosophila S3 Cells;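 on cell number change: cells counted by Cell Tracker Red CMTPX staining in the red channel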
Settings: BODIPY lipid droplet fluorescence, 18-24 h; for cell number change: measured here: cell count max response, cells fed with added oleic acid
Excerpt: NIH Molecular Libraries Probe Production Centers Network [MLPCN] NIH Chemical Genomics Center [NCGC] MLPCN Grant: 1 R03 MH085686-01 Assay Submitter (PI): Beller, Mathias; Max-Planck-Institut fur Biophysikalische Chemie NCGC Assay Overview: Storing lipids as a reservoir for energy or the anabolism of elementary metabolites is a common feature of probably all cells and is conserved from bacteria to humans. The universal cellular lipid storage organelle is the so-called lipid storage droplet (LD). Although ubiquitous, LDs share a simple structure composed of a hydrophobic core that harbors the storage lipids, which is shielded by a droplet-specific phospholipid monolayer to which proteins are attached. The current model of LD biogenesis involves an incorporation of the lipid core into the membrane leaflets of the endoplasmic reticulum (ER) followed by a subsequent budding-like maturation of a LD, which ultimately pinches off. Once released, LD volume can increase by localized lipogenesis or fusion of existing droplet. Storage lipids are re-mobilized enzymatically by lipase activity. Lipase regulation in the adipocyte is heavily studied and involves multiple components including catecholamine signaling, the LD-associated proteins Perilipin and comparative gene identification (CGI-58) and at least two lipases named hormone sensitive lipase (HSL) and adipocyte triglyceride lipase (ATGL). LD regulation outside of the adipocyte is poorly understood and only few components are known. However, there is an urgent need to learn more about ectopic fat depots as mislocalized storage of lipids, for example in the liver or muscle, is an eminent health problem associated with insulin resistance or the metabolic syndrome. We developed a laser-scanning cytometer assay to enable 1,536-well screening and combined the results of the small molecules screen with an RNAi database based on lipid storage.
Triacsin C (Sigma-Aldrich T-4540), an inhibitor of long-chain fatty acyl CoA synthetase that blocks synthesis of triglycerides, was used as a positive control for lipid under-storage. A total of 23 nL of compound solution of different concentrations were transferred to the assay plates using a Kalypsys pin tool equipped with a 1,536-pin array containing 10-nL slotted pins (FP1S10, 0.457-mm diameter, 50.8 mm long; V&P Scientific). One microliter of oleic acid (400 uM) was added, and the plate was lidded with stainless steel rubber gasket lined lids containing pinholes. […] Fluorescence was detected by excitation of the fluorophores with a 488-nm laser on an Acumen Explorer (TTP Lab Tech). The total intensity in channel 2 (500-530 nm) reflected lipid droplet accumulation. Cells were detected using channel 3 (575-640 nm) with 5-um width and 100-um depth filters. The ratio of the number of objects in PMT channel 2 over the number of objects in PMT channel 3 was also calculated. Percent activity was computed relative to an internal control (100% inhibited lipid droplet deposition due to the presence of 20 uM Triacsin C), which was added to 32 wells/plate.

[1] = measured here: cell number channel AC50, cells fed with added oleic acid
[2] = measured here: lipid fluorescence (Fed channel) AC50, cells fed with added oleic acid

Compound	cell number change [%]	AC50 [1]	AC50 [2]
CC(C)C1CC(CCNCc2ccc(N(C)C)cc2)(c2ccccc2)CCO1 (stereo not given)	-40.3	13 µM [falling, single point]	11.6 µM [falling, partial curve]
COc1ccc(C)cc1NC(=O)Nc1ccc(C(=O)N2CCCC2)cc1	-4.99		0.651 µM [falling, full curve]
O=C(c1ccco1)n1nc(-c2ccco2)nc1SCc1ccccc1	15.7	0.731 µM [falling, full curve, poor fit]	5.17 µM [falling, single point]
CCOC(=O)C1CCCN(CC(=O)NC2CC2)C1 (stereo not given)	-9.58		0.082 µM [falling, full curve]
Cc1nnc(SCCC(C)C)[nH]c1=O	-1.99		0.00461 µM [falling, full curve]
CCCn1c(SCCN2C(=O)c3ccccc3C2=O)n[nH]c1=O	1.91		0.731 µM [falling, single point]
COc1ccc(/C=C(\C#N)C(=O)OCC(=O)NCc2ccco2)cc1	-6.16		7.31 µM [falling, single point]
Cc1cccc(OCC(=O)Nc2ccc(S(=O)(=O)Nc3onc(C)c3C)cc2)c1C	7.89		0.1 µM [rising, full curve, poor fit]
CC(=O)OCCNC(=O)c1cccnc1	-3.47		6.51 µM [falling, single point]
COc1ccc(-c2ccc(SCC(=O)NC3CCCCC3)nn2)cc1OC	-17.5		9.2 µM [falling, single point]
N#CCCN(Cc1cccnc1)C(=O)Nc1ccccc1	11.1		1.46 µM [rising, full curve]
Cc1ccc(NC(=O)CSCC(=O)Nc2cc(Cl)ccc2N2CCN(C)CC2)cc1			32.6 µM [rising, single point]
C=CCNC(=O)c1ccccc1NC(=O)c1ccccc1	41.6	0.82 µM [rising, full curve]	
Cc1ccccc1NC(=O)Cc1nc(COC(=O)c2cc([N+](=O)[O-])ccc2N)cs1			0.58 µM [falling, single point]
COc1ccc(S(=O)(=O)N2CC(=O)Nc3ccccc32)cc1F	-20.3		6.51 µM [falling, single point]
CC(C)CCN1CCN(CC#Cc2ccccc2)CC1CCO (stereo not given)	25.3		23.1 µM [rising, single point]
CC1CCCCN1C(=O)CSc1nc2c(c(=O)n(C)c(=O)n2C)n1C (stereo not given)	23.5		5.8 µM [falling, full curve]
O=C(Nc1ccc(S(=O)(=O)N2CCCCC2)cc1)c1cnccn1	13.1		2.06 µM [rising, full curve, poor fit]
COC(=O)C1C(=O)C=C(Nc2ccc(F)cc2F)CC1c1ccc(OC)cc1 (stereo not given)	22.9		29.1 µM [rising, single point]
Cc1cccc(C)c1N(CC(=O)NCc1ccco1)C(=O)CNS(=O)(=O)c1ccc(F)cc1	-2.56	0.326 µM [falling, single point]	
Cc1occc1C(=O)Nc1nnc(C2CCCCC2)s1	-29.1		

Compound	cell number change [%]	AC50 [1]	AC50 [2]
CCOC(=O)C1=C(C)NC(=O)C(C(N)=O)C12CCCCC2 (stereo not given)	-0.74		0.0651 µM [falling, full curve, poor fit]
O=C(COC(=O)c1cnccn1)Nc1cccc2ccccc12	-0.176		6.51 µM [rising, single point]
Cc1ccccc1C(=O)NCC(=O)NNC(=O)c1cccc(Cl)c1	-10.7		
CC(C)CNC(=O)C1CCCN(S(=O)(=O)c2ccc(-n3cnnn3)cc2)C1 (stereo not given)	5.62		9.2 µM [falling, single point]
CCc1cccc(C)c1NC(=O)CN1C(=O)c2ccccc2S1(=O)=O	28.8		29.1 µM [rising, single point]
COc1cc(C(=O)N/C(=C/c2ccc(F)cc2)C(=O)NC(C(=O)O)c2ccccc2)cc(OC)c1OC (stereo not given)	-33.6	8.2 µM [falling, partial curve, poor fit]	5.8 µM [falling, partial curve, poor fit]
Cc1ccccc1NC(=O)NC1(C(=O)NCc2ccco2)CCCCC1	7.98		
O=C(Cn1cc2c(n1)CCCCC2)Nc1ccc(F)cc1F	30.8	29.1 µM [rising, single point]	
O=C(COc1ccc(Cl)cc1)Nc1ccc2c(c1)nc1n2CCOC1	15.1	6.51 µM [rising, single point]	16.4 µM [rising, partial curve]
Cc1nc2cc(OCc3cc(C(=O)NC(C)c4cn(C)nc4C)no3)ccc2s1 (stereo not given)	19.8	0.651 µM [rising, full curve, poor fit]	
O=C(Nc1ccc(CN2CCCCC2)cc1)c1cccc(F)c1	90.8		
Cc1cc(C)n(CC(=O)n2c3c(c4ccccc42)CCCC3)n1	-50.7	29.1 µM [falling, single point]	2.31 µM [rising, partial curve]
COc1ccc2[nH]c(=O)c(CN(C(C)=O)c3ccc(C)cc3C)cc2c1	-16.8		3.66 µM [falling, partial curve]
CN(CCOc1ccccc1)C(=O)c1ccc2c(=O)n3c(nc2c1)CCC3	46.2	7.31 µM [rising, partial curve]	6.51 µM [rising, full curve]
CC12CCCCC1NS(=O)(=O)OC2 (stereo not given)	27.8		29.1 µM [rising, single point]
CC(Sc1nnc(-c2ccncc2)n1-c1ccc(F)cc1)C(=O)NC1CC1 (stereo not given)	1.95		0.517 µM [rising, partial curve]
C#CC1(O)CC(C)NCC1(C)CCC#N (stereo not given)	-41.9	5.8 µM [falling, full curve]	
CC1=C(C(=O)N2CCOCC2)C(c2c(C)cc(C)cc2C)NC(=S)N1 (stereo not given)	24.8		0.146 µM [rising, full curve]
O=C(O)C1CC=CCC1C(=O)N1CCCC1 (stereo not given)	-8.75		
Cc1nnc(N2C(=O)C(O)=C(C(=O)c3ccco3)C2c2cccc([N+](=O)[O-])c2)s1 (stereo not given)	18.9	4.11 µM [rising, single point]	18.4 µM [falling, single point]
COc1ccc(F)cc1S(=O)(=O)N1CCC(C(N)=O)CC1	-15.3		0.366 µM [falling, full curve, poor fit]

Compound	cell number change [%]	AC50 [1]	AC50 [2]
COc1ccc(S(=O)(=O)NC(CC(=O)NCc2ccco2)C(C)C)cc1 (stereo not given)			0.146 µM [falling, full curve, poor fit]
COc1ccc(NC(=O)CN2C(=O)COc3ccccc32)cc1OC	15.7		
O=C(Cc1ccc2c(c1)OCCO2)Nc1ccc(Cl)c(S(=O)(=O)N2CCOCC2)c1	13.1		0.731 µM [falling, full curve]
CCCCCCC(O)(c1ccc(OC)cc1)C(CN1CCOCC1)c1ccccc1 (stereo not given)	19.9		6.51 µM [rising, single point]
CCC(C)NC(=O)C1c2ccccc2C(=O)N1Cc1ccc(F)cc1 (stereo not given)	-17.7		14.6 µM [falling, partial curve, poor fit]
CCOc1ccc(NC(=O)CC2C(=O)N(c3cccc(OC)c3)C(=O)N2CCOC)cc1 (stereo not given)	12.7		3.26 µM [falling, partial curve]
CC(C)Oc1ccccc1C1CC(=O)Nc2cc3c(cc21)OCO3 (stereo not given)	-27.5		5.17 µM [falling, full curve]
CCCOc1ccc(C(=O)Nc2ccc(S(=O)(=O)Nc3onc(C)c3C)cc2)cc1	-25.1		9.2 µM [falling, single point]
O=C(c1ccccc1)c1nccc2ccccc12		0.731 µM [rising, single point]	
Cc1c(C(=O)Nc2nc(-c3ccccn3)cs2)oc2ccccc12	-59.7	20.6 µM [falling, single point]	20.6 µM [falling, partial curve]
Cc1noc(C)c1COC(=O)CCc1nc2ccccc2c(=O)[nH]1	6.81		29.1 µM [rising, single point]
Oc1c(/C=N/Nc2cccc3cccnc23)ccc2ccccc12	-3.81		
CCOc1cccc(OCCOc2ccccc2[N+](=O)[O-])c1	-18.3		14.6 µM [rising, partial curve, poor fit]
CCc1cc2c3c(c(=O)oc2cc1OC(C)C(=O)O)CCCC3 (stereo not given)	22.8	0.103 µM [rising, full curve, poor fit]	29.1 µM [rising, single point]
CC(=O)c1ccc(NC(=O)c2ccc(N3CCCC3=O)cc2)cc1	19.5		
c1cnc2c(c1)ccc1cccnc12	-31.8	32.6 µM [falling, partial curve, poor fit]	29.1 µM [falling, partial curve, poor fit]
NS(=O)(=O)c1ccc(NC(=O)CSc2nc(Nc3ccccc3)nc(N3CCOCC3)n2)cc1	-8.11		0.82 µM [rising, partial curve]
NC(=O)c1ccsc1NC(=O)COC(=O)Cc1ccsc1		3.26 µM [falling, single point]	
CC(=O)Nc1c(-c2ccccc2)nc2ncccn12	-7.99		0.0206 µM [falling, full curve, poor fit]
CC(OC(=O)c1ccc(NS(=O)(=O)c2ccc3[nH]c(=O)[nH]c3c2)cc1)C(N)=O (stereo not given)	3.95		
